Changes are numbered by the printed parent chain. Numbers in names are those of the source. These are yes or no findings as the source states them, for the method shown. In cells and extracts the contact can be indirect. Some binding calls cover weakened binding; strength is not graded here. Tags and fused reporters may be left off the sequences shown.
T1: Flag-IRF7 (interferon regulatory factor 7) (UniProt Q92985)
T1 sequence: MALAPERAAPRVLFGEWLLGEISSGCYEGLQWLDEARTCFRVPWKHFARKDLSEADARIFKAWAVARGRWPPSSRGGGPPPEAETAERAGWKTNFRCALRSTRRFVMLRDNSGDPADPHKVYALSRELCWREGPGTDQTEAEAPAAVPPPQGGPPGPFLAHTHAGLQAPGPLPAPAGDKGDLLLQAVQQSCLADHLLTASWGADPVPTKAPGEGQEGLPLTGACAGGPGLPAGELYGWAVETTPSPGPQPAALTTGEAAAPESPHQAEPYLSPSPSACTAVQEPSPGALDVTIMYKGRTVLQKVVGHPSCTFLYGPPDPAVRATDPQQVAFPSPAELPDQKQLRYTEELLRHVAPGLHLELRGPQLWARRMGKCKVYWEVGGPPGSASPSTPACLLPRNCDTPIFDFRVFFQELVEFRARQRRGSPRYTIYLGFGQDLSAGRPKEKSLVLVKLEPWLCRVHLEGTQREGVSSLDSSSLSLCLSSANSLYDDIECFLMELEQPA

B1: Myc-AIP (aryl hydrocarbon receptor interacting protein), wildtype (protein, UniProt O00170 1-330)
chain: MADIIARLREDGIQKRVIQEGRGELPDFQDGTKATFHYRTLHSDDEGTVLDDSRARGKPMELIIGKKFKLPVWETIVCTMREGEIAQFLCDIKHVVLYPLVAKSLRNIAVGKDPLEGQRHCCGVAQMREHSSLGHADLDALQQNPQPLIFHMEMLKVESPGTYQQDPWAMTDEEKAKAVPLIHQEGNRLYREGHVKEAAAKYYDAIACLKNLQMKEQPGSPEWIQLDQQITPLLLNYCQCKLVVEEYYEVLDHCSSILNKYDDNVKAYFKRGKAHAAVWNAQEAQADFAKVLELDPALAPVVSRELRALEARIRQKDEEDKARFRGIFSH
B2: Myc-AIP T40E (phosphomimetic mutant) (protein, UniProt O00170 1-330)
chain: B1 chain with T40E

Biological target: T1, Flag-IRF7 (interferon regulatory factor 7)
Experiment: co-IP; 293T cells transfected with Myc-AIP and/or Flag-IRF7, uninfected or infected with SeV (or transfected with poly(I:C)); lysed in RIPA buffer, 400 ug lysate incubated overnight with mouse anti-Flag antibody, protein A/G PLUS-agarose, Western blot

Binder	binding
B1	binds
B2	binds

Reference: publication PMC10792245
